Assay results as given in patent US8815927B2, “Bivalent diazo bicyclic Smac mimetics and the uses thereof” (The Regents of the University of Michigan, priority 2009, dated 2014).
At least one structure is not confirmed: it was looked up by name or label, or the drawing left a doubt.

What was measured:
Format in all cases: cell-based, human
[1] = system: ovarian cancer SK-OV-3 cell line; experiment: Induction of cell death, trypan blue exclusion assay; settings: SK-OV-3, 48 hours, FIG. 2
Procedure: (§1) The ability of SM-1258 and SM-1267 to induce cell death was tested in the breast cancer MDA-MB-231 (FIG. 1) and ovarian cancer SK-OV-3 (FIG. 2) cell lines. Cells were treated with SM-1258 and SM-1267 for 48 hours and cell viability was determined using the trypan blue exclusion assay.

[2] = system: breast cancer MDA-MB-231 cell line; experiment: as above; settings: MDA-MB-231, 48 hours, FIG. 1
Procedure: as §1

[3] = system: SK-OV-3 ovarian cancer cell line; experiment: Cancer cell growth inhibition, WST-8
Procedure: The effect of the compounds of the present invention on the growth of various cancer cell lines was tested. Cells were seeded in 96-well flat bottom cell culture plates at a density of 3000 cells/well with a tested compound and incubated at 37° C. in an atmosphere of 95% air and 5% CO2 for 4 days. The rate of cell growth inhibition after treatment with different concentrations of the compound was determined using a WST-8 kit (2-(2-methoxy-4-nitrophenyl)-3-(4-nitrophenyl)-5-(2,4 disulfophenyl)-2H-tetrazolium monosodium salt; Dojindo Molecular Technologies, Inc., Gaithersburg, Md.). WST-8 was added at a final concentration of 10% to each well, and then the plates were incubated at 37° C. for 2-3 hrs. The absorbance of the samples was measured at 450 nm using a ULTRA Tecan Reader (Molecular Device). The concentration of the tested compound that inhibited cell growth by 50% (IC50) was calculated by comparing absorbance in untreated cells and the cells treated with the tested compound.

## CN[C@@H](C)C(=O)N[C@H]1CN(C(=O)CCCCCCCCCCC(=O)N2CC[C@H]3CC[C@@H](c4nc5cccc(-c6ccccc6)c5[nH]4)N3C(=O)[C@@H](NC(=O)[C@H](C)NC)C2)CC[C@H]2CC[C@@H](c3nc4c(-c5ccccc5)cccc4[nH]3)N2C1=O [SM-1258]
[1]
  induction of cell death: induced cell death
[2]
  induction of cell death: induced cell death
[3]
  inhibitory activity against SK-OV-3 (in words): strong inhibitory activity
